PubChem BioAssay AID686938 – Drosophila RNAi Screening Center – 2013

Test: 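Fly genes required for calcium entry once internal stores are emptied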 (primary screen)
Cells: Drosophila S2R+ cells
Reagent: long dsRNA against Drosophila genes, about 0.25 µg dsRNA per well, roughly 10,000 cells
Duration: 5 days of knock-down before the calcium assay
Conditions: thapsigargin (SERCA pump blocker) to empty calcium stores; entry signal taken 4 min after adding it
Detection: 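Duplicate raw fluo-4 intensities per well from a plate reader, at rest and four minutes after thapsigargin emptied calcium stores; entry-to-rest ratio filled for only some wells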
Reading the numbers: calcium entry signal: higher = stronger calcium signal after store depletion; entry to resting ratio: higher = more calcium entry relative to resting level; resting calcium signal: higher = higher resting calcium signal
Units: calcium entry signal in fluorescence units; resting calcium signal in fluorescence units
Call rule: 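Hit if the duplicate-averaged plate z-score for entry over resting signal is under −3; wells with weak total dye signal (Fmax z < −2) or more than 5 off-targets removed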
Meaning of the calls: active = strongly reduced calcium entry; inactive = no strong reduction
The screen tested about 23,000 reagents; shown is an unselected part of those that have a named target and a result. Over the whole deposit, 75 (0.33%) got an active call. 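Raw plate signals without normalisation; calls rest on plate z-scores that were not deposited; ratio present for only 364 wells.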 Unmarked entries are inactive. The record does not give: the dose of the treatment.

CG15545 (GeneID 43658) [DRSC15083] | calcium entry signal, replicate 1 = 3.94e7; calcium entry signal, replicate 2 = 5.33e7; resting calcium signal, replicate 1 = 2.00e7; resting calcium signal, replicate 2 = 2.29e7
CG4004 (GeneID 32226) [DRSC19791] | calcium entry signal, replicate 1 = 4.29e7; calcium entry signal, replicate 2 = 4.61e7; resting calcium signal, replicate 1 = 1.84e7; resting calcium signal, replicate 2 = 2.13e7
CG4004 (GeneID 32226) [DRSC19882] | calcium entry signal, replicate 1 = 3.24e7; calcium entry signal, replicate 2 = 5.65e7; resting calcium signal, replicate 1 = 1.65e7; resting calcium signal, replicate 2 = 2.45e7
bor (GeneID 53565) [DRSC16915] | calcium entry signal, replicate 1 = 2.72e7; calcium entry signal, replicate 2 = 3.20e7; resting calcium signal, replicate 1 = 1.30e7; resting calcium signal, replicate 2 = 9.23e7
Tbcc (GeneID 319048) [DRSC00223] | calcium entry signal, replicate 1 = 2.72e7; calcium entry signal, replicate 2 = 3.79e7; resting calcium signal, replicate 1 = 1.51e7; resting calcium signal, replicate 2 = 1.71e7
Cdc45 (GeneID 31052) [DRSC17747] | calcium entry signal, replicate 1 = 3.80e7; calcium entry signal, replicate 2 = 3.81e7; resting calcium signal, replicate 1 = 1.77e7; resting calcium signal, replicate 2 = 1.98e7
Cdc45 (GeneID 31052) [DRSC18164] | calcium entry signal, replicate 1 = 5.05e7; calcium entry signal, replicate 2 = 5.41e7; entry to resting ratio = 2.2; resting calcium signal, replicate 1 = 2.32e7; resting calcium signal, replicate 2 = 2.11e7
CG13743 (GeneID 35911) [DRSC05139] | calcium entry signal, replicate 1 = 2.00e7; calcium entry signal, replicate 2 = 4.99e7; resting calcium signal, replicate 1 = 1.02e7; resting calcium signal, replicate 2 = 2.75e7
CG13743 (GeneID 35911) [DRSC06414] | calcium entry signal, replicate 1 = 3.67e7; calcium entry signal, replicate 2 = 3.75e7; resting calcium signal, replicate 1 = 2.01e7; resting calcium signal, replicate 2 = 1.80e7
CG13743 (GeneID 35911) [DRSC22775] | calcium entry signal, replicate 1 = 4.17e7; calcium entry signal, replicate 2 = 3.43e7; resting calcium signal, replicate 1 = 2.46e7; resting calcium signal, replicate 2 = 1.69e7
p-cup (GeneID 32727) [DRSC19513] | calcium entry signal, replicate 1 = 2.29e7; calcium entry signal, replicate 2 = 2.09e7; resting calcium signal, replicate 1 = 1.30e7; resting calcium signal, replicate 2 = 1.09e7
CG11842 (GeneID 43431) [DRSC14400] | calcium entry signal, replicate 1 = 2.67e7; calcium entry signal, replicate 2 = 2.43e7; resting calcium signal, replicate 1 = 1.37e7; resting calcium signal, replicate 2 = 1.14e7

2 consecutive records from above, for reference:
Tbcc (GeneID 319048) [DRSC00223] | calcium entry signal, replicate 1 = 2.72e7; calcium entry signal, replicate 2 = 3.79e7; resting calcium signal, replicate 1 = 1.51e7; resting calcium signal, replicate 2 = 1.71e7
Cdc45 (GeneID 31052) [DRSC17747] | calcium entry signal, replicate 1 = 3.80e7; calcium entry signal, replicate 2 = 3.81e7; resting calcium signal, replicate 1 = 1.77e7; resting calcium signal, replicate 2 = 1.98e7
